# PubChem BioAssay AID1259424, University of Nebraska Medical Center | 2018
# Assay: 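Seek colon cancer survival genes behaving like KSR1, using a six-gene signature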 (primary screen)
# Cell system: human HCT116 colon cancer cells
# Reagents: siRNA pool against human genes, 50 nM
# Measured: 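Log2 levels of six mRNAs (branched-DNA multiplex), adjusted by two reference genes and the non-targeting median, then scored against the average KSR1 knockdown pattern as Pearson r and euclidean distance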
# Reading the numbers: mean correlation with KSR1 profile and KSR1 correlation: higher = expression change more like KSR1 knockdown; mean distance from KSR1 profile: higher = expression change less like KSR1 knockdown
# In all, the deposit lists about 14,000 reagents; below is a part drawn at random. 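Higher correlation or smaller distance means closer resemblance to KSR1 loss; control wells, including KSR1 knockdowns, recur on many plates.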 No sequences are given here. Not given: the time to read-out.
gene knocked down,mean correlation with KSR1 profile,mean distance from KSR1 profile,"KSR1 correlation, replicate 1","KSR1 correlation, replicate 2","KSR1 correlation, replicate 3"
ATG14 (autophagy related 14),0.000182,1.07,0.0284,0.129,-0.105
ADCY5 (adenylate cyclase 5),-0.4,2.09,-0.396,-0.432,-0.636
PAFAH1B3,-0.133,2.45,-0.167,-0.11,-0.204
ASPM (assembly factor for spindle microtubules),-0.569,3.72,-0.562,-0.596,-0.426
PNLIPRP1 (pancreatic lipase related protein 1),0.45,2.56,0.348,0.52,0.425
CD52 (CD52 molecule),0.407,2.32,0.432,0.401,0.224
GABPB1 (GA binding protein transcription factor subunit beta 1),-0.632,3.54,-0.636,-0.687,-0.553
CRYBA1 (crystallin beta A1),-0.289,1.97,-0.253,0.0904,-0.636
CCDC7 (coiled-coil domain containing 7),0.379,2.29,0.253,0.598,0.166
FEM1B (fem-1 homolog B),0.0803,1.61,0.0228,0.0159,0.288
ANGPTL8 (angiopoietin like 8),-0.321,4.33,-0.396,-0.306,-0.19
ACOT13 (acyl-CoA thioesterase 13),0.162,1.71,0.134,0.0861,0.306
OR3A3 (olfactory receptor family 3 subfamily A member 3),0.726,2.13,0.743,0.85,0.594
MAP2K6 (mitogen-activated protein kinase kinase 6),0.535,2.01,0.539,0.321,0.655
PEX2 (peroxisomal biogenesis factor 2),0.116,1.29,-0.147,-0.0631,0.4
GATA4 (GATA binding protein 4),-0.395,3.18,-0.391,-0.0918,-0.437
TTN (titin),0.041,1.98,0.23,0.0181,-0.223
SCARF1 (scavenger receptor class F member 1),0.432,1.28,0.52,0.21,0.512
KIAA0930,0.0499,1.54,-0.081,0.0487,0.0953
NCSTN (nicastrin),-0.311,3.28,-0.108,-0.147,-0.431
SP1 (Sp1 transcription factor),0.0453,2.13,0.00636,0.222,0.0497
VTI1B (vesicle transport through interaction with t-SNAREs 1B),-0.675,3.58,-0.601,-0.702,-0.685
GPD1L (glycerol-3-phosphate dehydrogenase 1 like),-0.616,3.17,-0.529,-0.697,-0.516
KIN (Kin17 DNA and RNA binding protein),0.837,1.33,0.747,0.823,0.772
PTPA (protein phosphatase 2 phosphatase activator),-0.623,1.47,-0.681,-0.475,-0.253
H4C8 (H4 clustered histone 8),-0.207,2.5,-0.3,-0.136,-0.209
BAD (BCL2 associated agonist of cell death),0.827,1.84,0.859,0.785,0.76
YKT6 (YKT6 vesicular SNARE protein),-0.369,2.76,-0.204,-0.497,-0.381
VDR (vitamin D receptor),-0.523,2.37,-0.395,-0.635,-0.219
LBP (lipopolysaccharide binding protein),0.489,2.87,0.308,0.549,0.303
SEMA4A (semaphorin 4A),-0.535,1.93,-0.273,-0.577,-0.567
EFNA1 (ephrin A1),0.186,1.35,0.353,0.00548,0.243
NTRK1 (neurotrophic receptor tyrosine kinase 1),0.0166,2.03,0.19,0.0445,-0.118
ZFP37 (ZFP37 zinc finger protein),-0.116,2.53,-0.211,-0.324,0.254

Records listed so far whose target name begins with P or p:
gene knocked down,mean correlation with KSR1 profile,mean distance from KSR1 profile,"KSR1 correlation, replicate 1","KSR1 correlation, replicate 2","KSR1 correlation, replicate 3"
PAFAH1B3,-0.133,2.45,-0.167,-0.11,-0.204
PNLIPRP1 (pancreatic lipase related protein 1),0.45,2.56,0.348,0.52,0.425
PEX2 (peroxisomal biogenesis factor 2),0.116,1.29,-0.147,-0.0631,0.4
PTPA (protein phosphatase 2 phosphatase activator),-0.623,1.47,-0.681,-0.475,-0.253
